No constants are given. Whether binding was seen depends on the method and setting. In cells and extracts the contact can be indirect. Some binding calls cover weakened binding; strength is not graded here.
T1: MUC13 (endogenous) (human (endogenous in SW620, HT29, HCT116, HPAF-II, SW480)) (UniProt Q9H3R2)
T1 sequence: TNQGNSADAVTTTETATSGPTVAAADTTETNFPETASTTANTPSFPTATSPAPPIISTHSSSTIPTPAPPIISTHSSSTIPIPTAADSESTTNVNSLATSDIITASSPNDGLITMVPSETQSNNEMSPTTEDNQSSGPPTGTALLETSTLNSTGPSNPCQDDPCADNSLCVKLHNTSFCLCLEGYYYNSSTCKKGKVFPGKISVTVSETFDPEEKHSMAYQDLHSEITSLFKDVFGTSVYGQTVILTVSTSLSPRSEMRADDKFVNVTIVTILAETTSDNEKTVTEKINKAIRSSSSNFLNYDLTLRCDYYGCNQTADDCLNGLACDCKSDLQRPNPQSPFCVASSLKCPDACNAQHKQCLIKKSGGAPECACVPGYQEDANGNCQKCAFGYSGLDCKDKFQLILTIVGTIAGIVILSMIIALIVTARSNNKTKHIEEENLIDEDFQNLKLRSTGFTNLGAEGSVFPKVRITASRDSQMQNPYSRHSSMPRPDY

Amino acid sequences for entries named in this document (tags omitted).
UniProt P35222: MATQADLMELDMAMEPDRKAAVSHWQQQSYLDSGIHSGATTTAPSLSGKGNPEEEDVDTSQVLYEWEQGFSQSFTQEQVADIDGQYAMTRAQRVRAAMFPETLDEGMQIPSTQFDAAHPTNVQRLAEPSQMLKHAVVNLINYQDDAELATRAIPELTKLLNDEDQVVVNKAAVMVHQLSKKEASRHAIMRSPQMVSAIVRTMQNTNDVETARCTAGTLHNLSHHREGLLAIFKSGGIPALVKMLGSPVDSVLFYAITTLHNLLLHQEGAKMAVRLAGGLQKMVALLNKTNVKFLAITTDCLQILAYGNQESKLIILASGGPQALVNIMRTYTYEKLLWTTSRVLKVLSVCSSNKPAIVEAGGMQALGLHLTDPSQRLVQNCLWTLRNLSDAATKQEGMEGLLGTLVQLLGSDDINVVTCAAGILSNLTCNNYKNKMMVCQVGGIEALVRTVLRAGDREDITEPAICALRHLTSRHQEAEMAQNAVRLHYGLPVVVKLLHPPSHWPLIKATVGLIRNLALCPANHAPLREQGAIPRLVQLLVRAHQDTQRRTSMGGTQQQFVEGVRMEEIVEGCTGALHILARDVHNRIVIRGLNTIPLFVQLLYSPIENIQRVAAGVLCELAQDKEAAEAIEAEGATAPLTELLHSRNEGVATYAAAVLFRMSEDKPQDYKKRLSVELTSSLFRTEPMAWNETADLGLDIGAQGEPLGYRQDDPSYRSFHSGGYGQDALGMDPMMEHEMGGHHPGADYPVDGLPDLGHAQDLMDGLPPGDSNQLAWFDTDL
UniProt P46937: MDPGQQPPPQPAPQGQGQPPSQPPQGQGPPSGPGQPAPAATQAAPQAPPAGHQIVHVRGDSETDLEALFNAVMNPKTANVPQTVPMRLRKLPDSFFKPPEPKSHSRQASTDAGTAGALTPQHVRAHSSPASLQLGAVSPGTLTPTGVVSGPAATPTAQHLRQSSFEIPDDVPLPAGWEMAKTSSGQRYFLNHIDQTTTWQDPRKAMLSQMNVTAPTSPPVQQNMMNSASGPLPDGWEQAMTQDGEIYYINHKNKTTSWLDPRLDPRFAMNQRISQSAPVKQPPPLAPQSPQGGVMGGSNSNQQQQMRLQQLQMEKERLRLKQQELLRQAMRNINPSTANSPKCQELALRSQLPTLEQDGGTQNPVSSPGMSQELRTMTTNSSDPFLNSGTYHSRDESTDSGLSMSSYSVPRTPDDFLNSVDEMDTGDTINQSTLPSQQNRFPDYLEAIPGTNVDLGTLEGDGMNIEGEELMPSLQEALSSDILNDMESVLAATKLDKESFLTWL

B1: MUC13 (ectopic, lentiviral expression in SW480 cells) (protein, UniProt Q9H3R2 19-512)
chain: T1 sequence
B2: MUC13 (endogenous) (protein, UniProt Q9H3R2 19-512)
chain: T1 sequence

Legend:
[1] = target: T1, MUC13 (endogenous) (human (endogenous in SW620, HT29, HCT116, HPAF-II, SW480)); assay: co-IP; reverse co-IP: immunoprecipitation with anti-MUC13 antibody, YAP1 detected; SW620 cells
[2] = target: β-catenin (endogenous) (human (endogenous in SW480, SW620)) (UniProt P35222); assay: proximity ligation; Duolink in situ PLA on cryosections of cryofixed cells 36 h after anoikis induction; mouse and rabbit primary antibody pairs; SW480+Vec, SW480+MUC13, SW620+shCtrl, SW620+shMUC13 (MUC13 knockdown)
[3] = target: YAP1 (endogenous) (human (endogenous in SW620, HT29, HCT116, HPAF-II, SW480)) (UniProt P46937); assay: as above
[4] = target: YAP1 (endogenous) (human (endogenous in SW620, HT29, HCT116, HPAF-II, SW480)) (UniProt P46937); assay: co-IP; immunoprecipitation with anti-YAP1 antibody, immunoblot for MUC13; SW620, HT29, HCT116 and HPAF-II cells

Molecule | binding [1] | binding [2] | binding [3] | binding [4]
YAP1 (endogenous) (from UniProt P46937 1-504) | binds | – | – | –
B1 | – | binds | binds | –
B2 | – | – | binds | binds

From article PMC10551643
